Test results published in article PMC10797291.
Results are given in words; binding and its absence hold for the method and conditions named. Binding seen in cells or lysates may run through a third protein. Some entries that bind do so weakly or less than the wild type.

Amino acid sequences for entries named in this document (tags omitted). A change or cut given only in a name is not applied to a line headed by its entry.
UniProt Q9C0B5: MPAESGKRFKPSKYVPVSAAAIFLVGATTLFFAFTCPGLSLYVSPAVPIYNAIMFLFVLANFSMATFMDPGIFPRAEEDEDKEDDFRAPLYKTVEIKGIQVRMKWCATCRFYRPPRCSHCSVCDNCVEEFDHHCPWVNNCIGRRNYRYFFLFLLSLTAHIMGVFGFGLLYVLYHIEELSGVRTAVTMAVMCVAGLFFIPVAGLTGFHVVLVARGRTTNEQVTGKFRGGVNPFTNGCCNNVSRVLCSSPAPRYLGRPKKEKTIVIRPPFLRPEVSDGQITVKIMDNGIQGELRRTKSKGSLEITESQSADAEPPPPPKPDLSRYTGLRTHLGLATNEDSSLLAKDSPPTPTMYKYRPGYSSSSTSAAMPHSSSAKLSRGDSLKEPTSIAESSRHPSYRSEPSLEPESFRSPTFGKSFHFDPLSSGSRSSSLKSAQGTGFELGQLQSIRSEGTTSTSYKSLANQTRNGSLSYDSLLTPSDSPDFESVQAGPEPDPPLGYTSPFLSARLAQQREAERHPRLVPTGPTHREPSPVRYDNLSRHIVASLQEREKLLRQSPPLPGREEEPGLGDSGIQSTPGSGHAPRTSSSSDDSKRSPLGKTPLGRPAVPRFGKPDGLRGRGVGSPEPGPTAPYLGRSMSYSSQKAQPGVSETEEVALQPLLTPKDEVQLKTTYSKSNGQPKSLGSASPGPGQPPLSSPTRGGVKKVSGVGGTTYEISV
UniProt Q05655: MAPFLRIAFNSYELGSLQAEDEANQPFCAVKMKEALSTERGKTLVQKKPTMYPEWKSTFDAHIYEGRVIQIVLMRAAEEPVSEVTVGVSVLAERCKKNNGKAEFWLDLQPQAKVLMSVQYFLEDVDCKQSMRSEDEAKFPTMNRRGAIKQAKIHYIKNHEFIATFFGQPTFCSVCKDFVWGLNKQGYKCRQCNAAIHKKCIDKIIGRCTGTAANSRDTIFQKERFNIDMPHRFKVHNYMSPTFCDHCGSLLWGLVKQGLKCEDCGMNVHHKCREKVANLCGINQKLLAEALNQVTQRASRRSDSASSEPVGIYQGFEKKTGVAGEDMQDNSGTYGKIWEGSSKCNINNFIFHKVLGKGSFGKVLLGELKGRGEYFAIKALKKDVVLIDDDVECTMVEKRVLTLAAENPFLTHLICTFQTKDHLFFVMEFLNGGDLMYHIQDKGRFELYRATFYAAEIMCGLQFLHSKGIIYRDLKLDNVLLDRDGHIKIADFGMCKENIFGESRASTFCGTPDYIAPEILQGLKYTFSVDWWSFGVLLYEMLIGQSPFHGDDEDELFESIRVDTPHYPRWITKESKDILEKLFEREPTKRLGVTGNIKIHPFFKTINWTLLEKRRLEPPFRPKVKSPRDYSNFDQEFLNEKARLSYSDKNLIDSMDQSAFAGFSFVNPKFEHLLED

Biological target: zinc finger DHHC-type palmitoyltransferase 5 (ZDHHC5), HA-tagged (UniProt Q9C0B5)
Assay: co-IP; ZDHHC5-HA precipitated with HA-tag beads overnight at 4 °C from NP-40 lysate of transfected 293T cells; blots for HA, PKCδ and β-actin; cells treated with 2.5 μM ART

For “protein kinase Cδ (PKCδ) (from UniProt Q05655 1-676) (enzyme)”, the binding was “binds”.
